Measurements reported in patent US12427183B2, “Methods of treating cancer, infectious disease, and autoimmune disease using chemokines” (New York Society for the Relief of the Ruptured and …, priority 2016, dated 2025).
For at least one compound, name, drawing or mass did not settle the structure.

Legend:
[1] = test system: TLR9-mediated activation of pDCs; assay: TLR9-mediated activation of purified pDCs (CpG with or without chemokines), IFN-α ELISA; type: cell-based, human; conditions: ATA 10 μM, CpG-activated pDCs
pDCs = assay: Uptake of fluorescent CpG-AF488 in pDCs (flow cytometry); type: cell-based, human; conditions: ATA 10 μM

Compound: O=C(O)C1=CC(=C(c2ccc(O)c(C(=O)O)c2)c2ccc(O)c(C(=O)O)c2)C=CC1=O [ATA, aurintricarboxylic acid, reference compound]
- increase of IFN-α secretion by chemokines [1]: prevented
- enhanced CpG uptake mediated by chemokines (pDCs): blocked
